Source: patent US20080131511A1, “Pharmaceutical Composition for Treatment of Tear and Salivary Fluid Drying” (Astellas Pharma, Inc., priority 2004, published 2008)

System: lacrimal gland
Test: Tear fluid secretion after subcutaneous bolus administration
Assay type: in vivo, mouse (male Balb/c)
Settings: mice; s.c. bolus
Experimental: Male Balb/c mice were used in the test.
(§1) The compound A was dissolved in physiological saline to a concentration of 1, 3, 10, 30 or 100 mg/5 ml, and 5 ml/kg of the drug solution was administered under the dorsal skin. Secreted amounts of salivary and tear fluid were measured just before the administration of compound A and 10, 20, 30, 40 and 50 minutes after the administration. The sweating action was measured 10 minutes after the administration. Also, the growth acceleration action was measured 6 hours after the administration.
as §1, with “Pilocarpine was dissolved” for “The compound A was dissolved”, “concentration of 0.03, 0.1, 0.3, 1, 3 or 10 mg/5 ml, or cevimeline to a concentration of 0.3, 1, 3,” for “concentration of 1, 3,”, “administration of pilocarpine or cevimeline and 10,” for “administration of compound A and 10,”
The mouth of a mouse was wiped with a cotton ball whose weight had been measured in advance, and the incremental weight was used as the amount of salivary fluid. […] From the measurement results, area under the secreted amount-versus-time curve (AUC) was calculated. […]

Row | Compound | dose for tear fluid secretion relative to dose for salivary fluid secretion [times]
1 | CC1OC2(CS1)CN1CCC2CC1 (centres unmarked) [cevimeline] | 3
2 | CC[C@@H]1C(=O)OC[C@@H]1Cc1cncn1C [pilocarpine] | 10
